No constants are given. Whether binding was seen depends on the method and setting. In cells and extracts the contact can be indirect. These calls come from enrichment with a bait or labelling near it, and not all partners need be listed.

Sequences of proteins named here, by UniProt entry; tags and fusion partners are left off. Residues count along the entry.
UniProt Q9TY95, residues 23-997: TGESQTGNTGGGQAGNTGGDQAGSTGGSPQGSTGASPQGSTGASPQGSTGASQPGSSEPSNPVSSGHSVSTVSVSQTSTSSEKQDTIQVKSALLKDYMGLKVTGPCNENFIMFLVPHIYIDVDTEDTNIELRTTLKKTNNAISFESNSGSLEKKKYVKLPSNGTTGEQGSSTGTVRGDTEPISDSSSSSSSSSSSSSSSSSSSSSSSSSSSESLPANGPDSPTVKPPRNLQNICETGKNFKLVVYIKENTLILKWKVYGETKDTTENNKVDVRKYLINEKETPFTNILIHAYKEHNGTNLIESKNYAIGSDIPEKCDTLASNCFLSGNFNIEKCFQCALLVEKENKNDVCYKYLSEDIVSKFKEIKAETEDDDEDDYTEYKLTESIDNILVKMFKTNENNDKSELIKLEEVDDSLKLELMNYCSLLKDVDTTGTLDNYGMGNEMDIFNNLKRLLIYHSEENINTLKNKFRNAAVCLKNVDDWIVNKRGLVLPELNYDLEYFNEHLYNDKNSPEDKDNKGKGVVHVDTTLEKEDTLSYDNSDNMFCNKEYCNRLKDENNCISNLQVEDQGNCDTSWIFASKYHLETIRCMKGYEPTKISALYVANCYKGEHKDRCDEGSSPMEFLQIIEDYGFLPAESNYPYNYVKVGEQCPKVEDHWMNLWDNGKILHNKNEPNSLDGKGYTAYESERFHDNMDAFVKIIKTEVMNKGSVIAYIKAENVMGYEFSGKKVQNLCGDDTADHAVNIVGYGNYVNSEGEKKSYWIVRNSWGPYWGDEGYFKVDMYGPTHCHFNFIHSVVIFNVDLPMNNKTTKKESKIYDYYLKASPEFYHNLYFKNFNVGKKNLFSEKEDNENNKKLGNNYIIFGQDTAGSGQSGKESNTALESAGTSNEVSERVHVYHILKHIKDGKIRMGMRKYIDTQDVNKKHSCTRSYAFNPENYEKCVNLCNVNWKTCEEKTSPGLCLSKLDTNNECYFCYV

The test deals with T1, native Pfs38 (Plasmodium falciparum 3D7 (endogenous in cultured parasites)) (UniProt Q8I423).
T1 sequence: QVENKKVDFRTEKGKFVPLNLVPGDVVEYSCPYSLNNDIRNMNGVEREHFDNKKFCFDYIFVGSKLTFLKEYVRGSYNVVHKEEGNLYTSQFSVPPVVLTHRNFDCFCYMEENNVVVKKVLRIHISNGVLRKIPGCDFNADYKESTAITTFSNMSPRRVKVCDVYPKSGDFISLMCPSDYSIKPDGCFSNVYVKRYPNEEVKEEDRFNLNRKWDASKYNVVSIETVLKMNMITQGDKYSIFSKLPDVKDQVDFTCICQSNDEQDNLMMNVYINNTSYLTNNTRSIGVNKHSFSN
As to the kind of experiment: affinity purification with mass spectrometry; late schizont (44-46 hpi) lysate in IP lysis buffer (1% NP-40, 150 mM NaCl, pH 7.4); polyclonal anti-Pfs38, anti-PfMSP-1_(65), anti-Pfs12 or anti-Pfs41 antibody on Protein-A Agarose, 12 h at 4 °C; eluate digested with trypsin, LC-MS/MS; pre-immune antibody as control.

Consider “native Serine repeat antigen 5 (SERA-5) (from UniProt Q9TY95 23-997)”, for which the binding entry is “binds”.

The values above are taken from publication PMC5312596, “A novel Pfs38 protein complex on the surface of Plasmodium falciparum blood-stage merozoites” (Malaria Journal, 2017).
